Data: patent US8338663B2 (priority 2001, dated 2012)
Some entries share one result that the patent states for a list of compounds.

Key:
Fusarium spp. = format: cell-based, Fusarium graminearum, Fusarium culmorum, F. verticillioides; conditions: all Fusarium spp., range 10-5000 ppm tested, day 7
Botrytis cinerea = assay: Botrytis mycelial growth on Plich medium; format: cell-based; conditions: all Botrytis isolates (grape and strawberry), range 10-5000 ppm tested, day 7

| SMILES | concentrations at which mycelium growth was inhibited (Fusarium spp.) | concentrations at which mycelium growth was inhibited (Botrytis cinerea) |
| --- | --- | --- |
| C=CC(C)(O)CCC=C(C)C (stereo not shown) [linalool] | above 10 ppm | above 10 ppm |
| C=CC(C)(O)CCC=C(C)CCC=C(C)C (stereo not shown) [nerolidol] | above 10 ppm | above 10 ppm |
